# According to US20260234634A1, “UNG/UDG INHIBITION IN BRCA-ASSOCIATED CANCER” (INSTITUT CURIE, priority 2023, published 2026):
# For at least one compound, name, drawing or mass did not settle the structure.
# How the values were obtained:
# NMNAT1−/− RPE-1 cells = assay: 12-day clonogenic survival assay, NMNAT1 knockout cells; format: cell-based; settings: indicated doses
# Experimental: a. Top, Immunoblot profiling of WT and NMNAT1^−/− RPE-1 cells for the indicated proteins. Bands corresponding to UNG1 (lower MW) and UNG2 (higher MW) are indicated. […] Cells were treated for 24 hours with the indicated doses of FdUrd, with and without 5 μM TAS-114. Bottom, Cell cycle distribution of WT (+/+) and NMNAT1^−/− (−/−) RPE-1 cells treated as in (top) (n=2). b. Quantification of gDNA-uracil and DNA breaks by modified comet assay with (right) and without (left) recombinant UNG (rUNG) respectively, in WT RPE-1 cells upon 24-hour FdUrd treatment with and without 5 μM TAS-114. Results are shown as tail moment. At least 80 comets per condition was measured using CometScore. […] The enzymes involved are indicated in bold and italic. […] PARP1 was detected after membrane stripping of the anti-ADP ribosylation antibody. […] Quantification of the 12-day clonogenic survival assay of the same cells as in (c, bottom) treated or not with the indicated doses of rucaparib (PARPi) for the duration of the experiment (n=3). e. Quantification of the 12-day clonogenic survival assay in WT (black) and NMNAT1^−/− (red) cells following exposure to the indicated doses of the indicated DNA-damaging drugs (n=3). f. Quantification of the 12-day clonogenic survival assay in WT, NMNAT1^−/−, and UNG^−/− cells following 24-hour exposure to the indicated doses of FdUrd with or without 5 μM TAS-114 (n=3). g. […]
# [1] = tested on: RPE-1 P53−/− cells knockout or depleted for UNG; assay: Survival assay of UNG knockout or depleted cells exposed to PARPi; format: cell-based; settings: in comparison with parental cells
smiles,measurement,setting,value
"CNCc1ccc(-c2[nH]c3cc(F)cc4c3c2CCNC4=O)cc1 [PARPi, rucaparib]",sensitivity of NMNAT1−/− cells to PARP inhibitor,NMNAT1−/− RPE-1 cells,sensitized
same,sensitivity of UNG knockout or depleted cells to PARP inhibitor,[1],sensitizes
